The values that follow come from the supplement of paper PMC10849652.

Chains of the proteins cited; added tags and fusions are not shown. Lines headed by an entry give the natural chain unless they say otherwise; changes in a name come on top.
UniProt Q8IW35: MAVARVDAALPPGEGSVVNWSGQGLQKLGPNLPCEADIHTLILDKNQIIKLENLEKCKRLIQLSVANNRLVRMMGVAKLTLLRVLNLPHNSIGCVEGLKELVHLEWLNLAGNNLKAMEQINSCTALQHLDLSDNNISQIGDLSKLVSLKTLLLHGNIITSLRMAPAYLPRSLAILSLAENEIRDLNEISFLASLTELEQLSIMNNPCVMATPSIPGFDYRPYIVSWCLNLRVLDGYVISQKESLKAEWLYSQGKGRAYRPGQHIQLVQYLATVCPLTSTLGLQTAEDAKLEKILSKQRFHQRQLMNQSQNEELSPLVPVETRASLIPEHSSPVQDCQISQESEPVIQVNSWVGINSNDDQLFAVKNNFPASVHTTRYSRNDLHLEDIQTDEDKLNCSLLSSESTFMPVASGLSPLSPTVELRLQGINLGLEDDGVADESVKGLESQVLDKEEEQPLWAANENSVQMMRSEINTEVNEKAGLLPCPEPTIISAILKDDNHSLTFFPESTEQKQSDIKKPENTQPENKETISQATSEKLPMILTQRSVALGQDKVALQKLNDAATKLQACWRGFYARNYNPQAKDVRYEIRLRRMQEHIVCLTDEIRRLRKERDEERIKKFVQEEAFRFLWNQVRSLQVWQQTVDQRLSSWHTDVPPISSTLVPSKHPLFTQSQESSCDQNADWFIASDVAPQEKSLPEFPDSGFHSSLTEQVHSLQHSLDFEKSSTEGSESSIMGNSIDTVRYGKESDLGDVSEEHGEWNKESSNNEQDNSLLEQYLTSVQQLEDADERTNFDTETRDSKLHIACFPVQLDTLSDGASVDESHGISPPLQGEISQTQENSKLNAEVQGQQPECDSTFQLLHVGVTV
UniProt Q9NX63: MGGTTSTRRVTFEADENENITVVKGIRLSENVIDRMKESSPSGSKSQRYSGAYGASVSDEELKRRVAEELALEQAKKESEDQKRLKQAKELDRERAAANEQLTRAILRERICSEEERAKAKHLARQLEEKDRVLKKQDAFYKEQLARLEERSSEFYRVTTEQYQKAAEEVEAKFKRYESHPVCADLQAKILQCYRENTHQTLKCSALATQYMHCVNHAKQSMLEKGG
UniProt A8MT69: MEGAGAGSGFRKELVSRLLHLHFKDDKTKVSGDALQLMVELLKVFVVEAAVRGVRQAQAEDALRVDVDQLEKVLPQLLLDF
UniProt Q5VXU3: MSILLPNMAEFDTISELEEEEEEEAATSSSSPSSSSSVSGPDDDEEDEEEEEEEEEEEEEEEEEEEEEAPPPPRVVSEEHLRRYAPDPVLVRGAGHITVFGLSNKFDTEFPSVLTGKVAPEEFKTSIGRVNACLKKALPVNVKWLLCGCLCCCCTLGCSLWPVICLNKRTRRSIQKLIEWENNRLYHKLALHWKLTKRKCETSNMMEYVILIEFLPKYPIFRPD
UniProt Q9UFW8: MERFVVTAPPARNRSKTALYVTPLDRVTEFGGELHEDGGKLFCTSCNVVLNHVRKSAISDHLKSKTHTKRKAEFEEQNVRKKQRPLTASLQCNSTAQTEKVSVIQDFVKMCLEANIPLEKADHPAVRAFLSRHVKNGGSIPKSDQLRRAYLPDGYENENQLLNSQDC
UniProt Q9Y592: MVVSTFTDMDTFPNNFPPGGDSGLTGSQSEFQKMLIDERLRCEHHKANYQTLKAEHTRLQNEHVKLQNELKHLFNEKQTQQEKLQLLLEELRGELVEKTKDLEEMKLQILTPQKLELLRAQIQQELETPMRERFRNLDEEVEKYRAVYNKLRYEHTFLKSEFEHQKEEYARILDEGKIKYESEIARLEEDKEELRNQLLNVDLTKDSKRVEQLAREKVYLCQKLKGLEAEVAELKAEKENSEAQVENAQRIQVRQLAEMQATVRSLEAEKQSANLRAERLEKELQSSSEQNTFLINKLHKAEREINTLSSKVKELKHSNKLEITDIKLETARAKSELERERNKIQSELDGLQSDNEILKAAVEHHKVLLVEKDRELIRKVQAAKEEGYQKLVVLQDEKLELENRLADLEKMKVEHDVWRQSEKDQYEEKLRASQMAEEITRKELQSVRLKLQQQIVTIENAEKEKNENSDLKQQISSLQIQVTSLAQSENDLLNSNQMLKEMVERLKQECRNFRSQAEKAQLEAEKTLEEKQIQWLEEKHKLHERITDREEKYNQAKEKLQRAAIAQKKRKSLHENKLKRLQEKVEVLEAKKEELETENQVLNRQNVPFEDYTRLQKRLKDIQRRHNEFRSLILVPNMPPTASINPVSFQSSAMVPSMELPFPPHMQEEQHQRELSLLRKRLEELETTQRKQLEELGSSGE
UniProt Q8TDI0: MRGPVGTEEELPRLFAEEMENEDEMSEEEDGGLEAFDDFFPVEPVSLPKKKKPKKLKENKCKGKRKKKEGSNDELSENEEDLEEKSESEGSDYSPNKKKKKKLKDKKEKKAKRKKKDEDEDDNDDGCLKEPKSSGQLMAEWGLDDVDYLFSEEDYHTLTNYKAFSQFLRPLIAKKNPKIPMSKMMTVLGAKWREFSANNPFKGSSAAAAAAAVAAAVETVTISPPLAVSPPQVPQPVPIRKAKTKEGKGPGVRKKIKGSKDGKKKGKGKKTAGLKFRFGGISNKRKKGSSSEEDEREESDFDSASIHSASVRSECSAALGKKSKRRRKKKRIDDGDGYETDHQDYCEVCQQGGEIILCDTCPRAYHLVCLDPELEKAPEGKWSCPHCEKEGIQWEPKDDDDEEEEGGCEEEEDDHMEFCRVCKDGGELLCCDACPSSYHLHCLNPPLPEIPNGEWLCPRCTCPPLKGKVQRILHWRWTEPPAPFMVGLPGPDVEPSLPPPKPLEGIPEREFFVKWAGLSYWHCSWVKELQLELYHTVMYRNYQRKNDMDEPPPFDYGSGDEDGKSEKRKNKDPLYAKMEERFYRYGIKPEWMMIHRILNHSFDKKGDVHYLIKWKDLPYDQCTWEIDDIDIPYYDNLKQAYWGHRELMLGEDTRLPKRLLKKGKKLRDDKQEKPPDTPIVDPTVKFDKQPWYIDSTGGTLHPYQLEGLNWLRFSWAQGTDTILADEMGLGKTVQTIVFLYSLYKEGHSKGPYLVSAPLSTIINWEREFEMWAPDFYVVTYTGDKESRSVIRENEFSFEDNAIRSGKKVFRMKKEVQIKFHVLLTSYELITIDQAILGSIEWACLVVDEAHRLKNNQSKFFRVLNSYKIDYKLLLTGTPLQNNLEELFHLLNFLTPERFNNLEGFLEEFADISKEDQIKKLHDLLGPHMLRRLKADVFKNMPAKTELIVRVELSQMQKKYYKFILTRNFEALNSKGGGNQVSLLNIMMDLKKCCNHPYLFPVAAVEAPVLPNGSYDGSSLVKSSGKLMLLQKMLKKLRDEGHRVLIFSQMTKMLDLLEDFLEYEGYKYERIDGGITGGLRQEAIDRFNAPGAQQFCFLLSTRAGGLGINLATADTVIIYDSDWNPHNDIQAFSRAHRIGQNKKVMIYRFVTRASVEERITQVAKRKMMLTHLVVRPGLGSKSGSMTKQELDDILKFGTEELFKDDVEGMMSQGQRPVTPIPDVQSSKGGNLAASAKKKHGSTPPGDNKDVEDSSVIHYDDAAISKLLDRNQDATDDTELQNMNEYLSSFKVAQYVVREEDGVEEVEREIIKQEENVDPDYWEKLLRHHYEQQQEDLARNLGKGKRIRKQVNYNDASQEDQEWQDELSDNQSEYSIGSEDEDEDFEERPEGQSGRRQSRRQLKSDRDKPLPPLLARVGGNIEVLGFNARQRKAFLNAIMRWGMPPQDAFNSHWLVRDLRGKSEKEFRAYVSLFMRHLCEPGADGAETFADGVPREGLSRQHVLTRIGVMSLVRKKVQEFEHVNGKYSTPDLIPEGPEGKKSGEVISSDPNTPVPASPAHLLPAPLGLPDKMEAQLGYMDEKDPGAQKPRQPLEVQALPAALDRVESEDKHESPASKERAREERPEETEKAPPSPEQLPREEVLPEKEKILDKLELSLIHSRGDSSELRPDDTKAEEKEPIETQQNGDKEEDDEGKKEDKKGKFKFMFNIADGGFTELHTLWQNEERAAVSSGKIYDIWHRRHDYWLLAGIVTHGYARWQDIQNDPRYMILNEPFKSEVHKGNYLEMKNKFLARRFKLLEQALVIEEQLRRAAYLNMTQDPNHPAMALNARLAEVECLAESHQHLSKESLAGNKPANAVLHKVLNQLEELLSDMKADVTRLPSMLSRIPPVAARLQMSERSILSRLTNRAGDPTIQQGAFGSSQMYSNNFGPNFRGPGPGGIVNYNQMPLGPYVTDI
UniProt Q96EP1: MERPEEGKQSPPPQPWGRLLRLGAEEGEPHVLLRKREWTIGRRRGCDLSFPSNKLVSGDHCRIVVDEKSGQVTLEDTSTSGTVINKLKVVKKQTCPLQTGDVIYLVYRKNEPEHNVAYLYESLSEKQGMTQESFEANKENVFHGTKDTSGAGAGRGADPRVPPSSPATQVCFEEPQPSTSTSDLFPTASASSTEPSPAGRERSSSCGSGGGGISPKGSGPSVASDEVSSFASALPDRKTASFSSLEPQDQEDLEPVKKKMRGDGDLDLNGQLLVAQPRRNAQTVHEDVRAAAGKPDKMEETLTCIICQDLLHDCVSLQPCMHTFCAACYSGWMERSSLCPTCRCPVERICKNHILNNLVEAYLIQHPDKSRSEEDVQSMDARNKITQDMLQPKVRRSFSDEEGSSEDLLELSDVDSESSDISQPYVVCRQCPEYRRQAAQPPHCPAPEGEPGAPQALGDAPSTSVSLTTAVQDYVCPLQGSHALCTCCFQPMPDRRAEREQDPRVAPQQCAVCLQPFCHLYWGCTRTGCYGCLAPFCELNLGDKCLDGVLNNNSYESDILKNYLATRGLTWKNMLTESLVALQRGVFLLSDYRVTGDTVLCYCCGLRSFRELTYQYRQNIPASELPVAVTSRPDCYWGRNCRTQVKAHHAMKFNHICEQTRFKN
UniProt Q6DT37: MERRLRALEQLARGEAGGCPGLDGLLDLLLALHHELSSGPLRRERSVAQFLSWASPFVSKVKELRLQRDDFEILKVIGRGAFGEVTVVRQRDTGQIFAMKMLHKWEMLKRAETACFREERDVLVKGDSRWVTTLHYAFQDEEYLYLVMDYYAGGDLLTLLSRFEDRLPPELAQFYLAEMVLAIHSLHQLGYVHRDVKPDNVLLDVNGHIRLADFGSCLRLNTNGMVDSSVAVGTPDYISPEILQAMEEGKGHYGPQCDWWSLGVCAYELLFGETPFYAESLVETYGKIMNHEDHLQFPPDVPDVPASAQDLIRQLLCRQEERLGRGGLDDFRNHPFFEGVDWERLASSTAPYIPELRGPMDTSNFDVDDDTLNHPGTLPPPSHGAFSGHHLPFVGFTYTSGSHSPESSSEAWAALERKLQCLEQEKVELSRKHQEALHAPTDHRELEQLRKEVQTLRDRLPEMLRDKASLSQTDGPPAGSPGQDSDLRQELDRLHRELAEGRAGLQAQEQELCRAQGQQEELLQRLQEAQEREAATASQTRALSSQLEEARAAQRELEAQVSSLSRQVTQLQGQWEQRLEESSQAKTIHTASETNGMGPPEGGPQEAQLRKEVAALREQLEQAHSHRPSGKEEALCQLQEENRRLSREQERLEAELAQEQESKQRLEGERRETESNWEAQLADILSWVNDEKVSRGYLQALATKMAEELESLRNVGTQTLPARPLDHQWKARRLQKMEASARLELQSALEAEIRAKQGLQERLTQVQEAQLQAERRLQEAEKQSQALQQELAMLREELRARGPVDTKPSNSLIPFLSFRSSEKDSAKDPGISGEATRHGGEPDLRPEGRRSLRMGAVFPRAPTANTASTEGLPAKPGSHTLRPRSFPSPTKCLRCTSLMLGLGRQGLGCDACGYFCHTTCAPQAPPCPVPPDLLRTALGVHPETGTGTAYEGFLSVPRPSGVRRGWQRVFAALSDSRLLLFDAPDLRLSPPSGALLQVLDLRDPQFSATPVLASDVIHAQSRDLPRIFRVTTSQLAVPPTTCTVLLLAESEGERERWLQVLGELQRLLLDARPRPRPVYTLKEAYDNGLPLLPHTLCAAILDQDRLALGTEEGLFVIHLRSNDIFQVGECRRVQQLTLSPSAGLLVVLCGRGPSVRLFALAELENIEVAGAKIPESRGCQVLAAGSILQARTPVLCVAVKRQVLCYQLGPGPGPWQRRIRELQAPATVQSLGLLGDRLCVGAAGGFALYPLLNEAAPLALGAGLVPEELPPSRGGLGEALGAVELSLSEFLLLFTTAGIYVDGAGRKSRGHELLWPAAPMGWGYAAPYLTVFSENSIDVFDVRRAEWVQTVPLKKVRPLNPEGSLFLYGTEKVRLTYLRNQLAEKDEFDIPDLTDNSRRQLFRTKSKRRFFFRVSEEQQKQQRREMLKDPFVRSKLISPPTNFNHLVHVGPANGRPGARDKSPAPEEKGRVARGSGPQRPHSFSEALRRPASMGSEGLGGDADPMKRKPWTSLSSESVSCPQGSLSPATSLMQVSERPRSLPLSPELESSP
UniProt Q9Y281, whole entry, looked up: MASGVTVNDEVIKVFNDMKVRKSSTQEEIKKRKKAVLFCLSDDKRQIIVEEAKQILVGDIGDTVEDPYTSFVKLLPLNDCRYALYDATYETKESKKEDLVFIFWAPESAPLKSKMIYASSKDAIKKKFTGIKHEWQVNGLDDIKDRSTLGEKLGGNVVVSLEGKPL

The list shows a part of the results.

Compound in this assay: c1cn2cc(-c3ccc4cn[nH]c4c3)nc(Nc3ccc(N4CCOCC4)cc3)c2n1 [entospletinib]
The assay is described as follows: log2 fold change, soluble protein after heating vs DMSO (PISA); higher = thermal stabilisation; K562 cells, 10 uM, 30 min; active = over 0.2 and 3.5 SD of the protein, either way, in both replicates (recomputed). In a few lines: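 Soluble protein was defined as the supernatant after 21,000xg for 90 min. It came from K562 cells at 2×10^6 cells/mL given 10 μM compound for 30 min, heated in aliquots for 3 min across 48°C-58°C, pooled, and extracted in PBS with 0.5% NP-40 at 4°C, and was quantified by TMTpro 16plex LC-MS/MS with equalised channel sums. Thermal stability against control samples, from duplicates, is reported as log2 fold change.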
As for CDSN (UniProt Q15517), the log2 fold change was inactive: -0.208.

CEBPG (UniProt P53567): the log2 fold change is inactive: 0.131.

Regarding CEP97 isoform 2 (UniProt Q8IW35), the log2 fold change was inactive: -0.006.

For the target CFL1 (UniProt P23528), the log2 fold change was inactive: 0.023.

Consider CHEK2 isoform 9 (UniProt O96017), for which the log2 fold change is inactive: -0.07.

For the target CDCA5 (UniProt Q96FF9), the log2 fold change is inactive: 0.082.

CDYL (UniProt Q9Y232): the log2 fold change is inactive: 0.041.

Turning to CEBPB (UniProt P17676), the log2 fold change is inactive: 0.029.

In the case of CEP350 (UniProt Q5VT06), the log2 fold change is inactive: 0.101.

With CHCHD3 (UniProt Q9NX63), the log2 fold change is inactive: 0.01.

Consider CDC73 (UniProt Q6P1J9), for which the log2 fold change is inactive: 0.116.

CENPX (UniProt A8MT69): the log2 fold change was inactive: -0.13.

Take CDCA3 (UniProt Q99618): the log2 fold change was inactive: -0.01.

Regarding CEP135 (UniProt Q66GS9), the log2 fold change is inactive: -0.175.

For the target CEP152 (UniProt O94986), the log2 fold change is inactive: -0.096.

Turning to CENPC (UniProt Q03188), the log2 fold change is inactive: 0.169.

As for CEP76 (UniProt Q8TAP6), the log2 fold change was inactive: -0.025.

Turning to CFAP298 (UniProt P57076), the log2 fold change was inactive: 0.201.

For CDS2 (UniProt O95674), the log2 fold change was inactive: 0.036.

As for CHM (UniProt P24386), the log2 fold change is inactive: -0.011.

As for CHCHD7 isoform 4 (UniProt Q9BUK0), the log2 fold change is inactive: -0.078.

As to CEP41 (UniProt Q9BYV8), the log2 fold change is inactive: -0.627.

In the case of CERS5 (UniProt Q8N5B7), the log2 fold change is inactive: -0.014.

Turning to CDCP1 (UniProt Q9H5V8), the log2 fold change is inactive: -0.018.

Consider CHIC1 (UniProt Q5VXU3), for which the log2 fold change is inactive: -0.119.

For CGGBP1 (UniProt Q9UFW8), the log2 fold change is inactive: -0.024.

CEP83 (UniProt Q9Y592): the log2 fold change is inactive: -0.081.

Take CHD5 (UniProt Q8TDI0): the log2 fold change is inactive: 0.283.

With CFB (UniProt P00751), the log2 fold change was inactive: 0.401.

CEP44 (UniProt Q9C0F1): the log2 fold change was inactive: 0.218.

Take CENPK (UniProt Q9BS16): the log2 fold change was inactive: 0.105.

Turning to CENPS (UniProt Q8N2Z9), the log2 fold change was inactive: -0.019.

With CDKN1C (UniProt P49918), the log2 fold change is inactive: -0.578.

For CHFR (UniProt Q96EP1), the log2 fold change was inactive: -0.342.

With CEP170B (UniProt Q9Y4F5), the log2 fold change is inactive: 0.075.

As to CDC42BPG (UniProt Q6DT37), the log2 fold change was inactive: 0.179.

As to CFL2 (UniProt Q9Y281), the log2 fold change was inactive: 0.038.

As for CEP85 (UniProt Q6P2H3), the log2 fold change was inactive: 0.221.
